Literature values as cited in patent US9791449B2, “Ovarian cancer stem cells and methods of isolation and uses thereof” (THE GENERAL HOSPITAL CORPORATION, priority 2011, dated 2017).
For at least one compound, name, drawing or mass did not settle the structure.

Tests used:
[1] = tested on: 3+/Ecad− population; conditions: cited from earlier work
[2] = tested on: ovarian cancer cells marked by CD44, CD24, and Epcam (3+); conditions: cited from earlier work

In the case of `Oc1c2ccccc2c2c3c(cccc13)N=N2` [SP600125, antra(1,9-cd)pyrazol-6(2H)-one, reference compound], the “response of 3+/Ecad− population” value [1] is listed as “responded well” and the “inhibition of 3+ enriched population” value [2] is listed as “significantly inhibited”.
